Test results published in paper PMC11257983 (2024).
No constants are given. Whether binding was seen depends on the method and setting. In cells and extracts the contact can be indirect. Binding calls can cover weak binding; strength is not graded here. Tags and fused reporters may be left off the sequences shown.

B1: V5-KSR (protein, UniProt Q24171 1-966)
chain: MSSNNNAPASAPDTGSTNANDPISGSLSVDSNLVIIQDMIDLSANHLEGLRTQCAISSTLTQQEIRCLESKLVRYFSELLLAKMRLNERIPANGLVPHTTGNELRQWLRVVGLSQGTLTACLARLTTLEQSLRLSDEEIRQLLADSPSQREEEELRRLTRAMQNLRKCMESLESGTAASNNDPEQWHWDSWDRPTHIHRGSVGNIGLGNNSTASPRTHHRQHGVKGKNSALANSTNFKSGRQSPSATEELNSTQGSQLTLTLTPSPPNSPFTPSSGLSSSLNGTPQRSRGTPPPARKHQTLLSQSHVQVDGEQLARNRLPTDPSPDSHSSTSSDIFVDPNTNASSGGSSSNVLMVPCSPGVGHVGMGHAIKHRFTKALGFMATCTLCQKQVFHRWMKCTDCKYICHKSCAPHVPPSCGLPREYVDEFRHIKEQGGYASLPHVHGAAKGSPLVKKSTLGKPLHQQHGDSSSPSSSCTSSTPSSPALFQQRERELDQAGSSSSANLLPTPSLGKHQPSQFNFPNVTVTSSGGSGGVSLISNEPVPEQFPTAPATANGGLDSLVSSSNGHMSSLIGSQTSNASTAATLTGSLVNSTTTTSTCSFFPRKLSTAGVDKRTPFTSEYTDTHKSNDSDKTVSLSGSASTDSDRTPVRVDSTEDGDSGQWRQNSISLKEWDIPYGDLLLLERIGQGRFGTVHRALWHGDVAVKLLNEDYLQDEHMLETFRSEVANFKNTRHENLVLFMGACMNPPYLAIVTSLCKGNTLYTYIHQRREKFAMNRTLLIAQQIAQGMGYLHAREIIHKDLRTKNIFIENGKVIITDFGLFSSTKLLYCDMGLGVPHNWLCYLAPELIRALQPEKPRGECLEFTPYSDVYSFGTVWYELICGEFTFKDQPAESIIWQVGRGMKQSLANLQSGRDVKDLLMLCWTYEKEHRPQFARLLSLLEHLPKKRLARSPSHPVNLSRSAESVF

Tests used:
GST-HYP (Drosophila) = molecular target: T1, GST-HYP (Drosophila) (UniProt Q8ML92); assay: pull-down; GST-HYP as bait, Flag-CNK^2–549 variants co-expressed in S2 cells without other pathway components (binary CNK–HYP interaction); total lysates, overnight at 4 °C; immunoblot
T1 sequence: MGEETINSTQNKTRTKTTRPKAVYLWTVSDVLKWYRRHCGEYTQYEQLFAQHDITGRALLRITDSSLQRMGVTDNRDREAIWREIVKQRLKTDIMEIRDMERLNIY

[1] = molecular target: CNK^SAM R46F (Flag-CNK^2–549 assumed) (Drosophila); assay: pull-down; GST-HYP as bait, CNK, KSR and MEK variants co-expressed in S2 cells (Fig. 2c,d; Extended Data Fig. 7e); total lysates, overnight at 4 °C; immunoblot
[2] = molecular target: CNK^CRIC N96E (Flag-CNK^2–549 assumed) (Drosophila); assay: as above
[3] = molecular target: CNK^CRIC R99E (Flag-CNK^2–549 assumed) (Drosophila); assay: as above
[4] = molecular target: CNK^SAM Y76R (Flag-CNK^2–549 assumed) (Drosophila); assay: as above

| Molecule | binding (GST-HYP (Drosophila)) | further results |
| --- | --- | --- |
| CNK^CRIC N82W (Flag-CNK^2–549 assumed) (Drosophila) (domain or fragment) | binds |  |
| CNK^SAM Y76R (Flag-CNK^2–549 assumed) (Drosophila) (domain or fragment) | binds |  |
| CNK^SAM R46F (Flag-CNK^2–549 assumed) (Drosophila) (domain or fragment) | binds |  |
| CNK^CRIC Q84E (Flag-CNK^2–549 assumed) (Drosophila) (domain or fragment) | binds |  |
| CNK^CRIC N96E (Flag-CNK^2–549 assumed) (Drosophila) (domain or fragment) | binds |  |
| CNK^CRIC R99E (Flag-CNK^2–549 assumed) (Drosophila) (domain or fragment) | binds |  |
| CNK^CRIC N82E (Flag-CNK^2–549 assumed) (Drosophila) (domain or fragment) | binds |  |
| B1 |  | binding [1]: binds; binding [2]: binds; binding [3]: binds; binding [4]: binds |
